# Reference: patent US9487492B2, “Dibenzothiazepine derivatives and their use in the treatment of CNS disorders” (NUMEDICUS LIMITED, priority 2011, dated 2016)
# At least one read-out could not be matched to a standard name with certainty.
# Test: PPB (compound bound to proteins)
# Conditions: percentage of compound bound to proteins
compound,measurement,value
"CN1c2ccccc2C(NCCCCOCC(=O)O)c2ccc(Cl)cc2S1(=O)=O (stereo not shown) [Example 2, 2-(4-((3-chloro-6-methyl-5,5-dioxido-6,11-dihydrodibenzo[c,f][1,2]thiazepin-11-yl)amino)butoxy)acetic acid]","PPB, % bound",82%
